Article PMC5841295

Protein sequences, listed by entry. Tags and fused reporters are not part of them. Lines headed by an entry give the natural chain unless they say otherwise; changes in a name come on top.
UniProt Q07812: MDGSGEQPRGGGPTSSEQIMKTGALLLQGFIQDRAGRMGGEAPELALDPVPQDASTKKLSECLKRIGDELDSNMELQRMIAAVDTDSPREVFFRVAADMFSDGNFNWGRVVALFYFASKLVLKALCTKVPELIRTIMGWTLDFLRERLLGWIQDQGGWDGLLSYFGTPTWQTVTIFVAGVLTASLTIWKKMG

Target: GST-Bax (UniProt Q07812)
Test: pull-down; recombinant GST-Bax and MBP-Bid-HA applied to Glutathione sepharose 4B beads, washed with OG buffer (10 mM TrisHCl pH 7.4, 150 mM NaCl, 0.1% octyl glycoside); first elution with purified PLEKHN1 (and Bax) or control buffer, second elution with 30 mM reduced glutathione; both purified

B1: MBP-Bid-HA (protein, UniProt P55957 1-195)
chain: MDCEVNNGSSLRDECITNLLVFGFLQSCSDNSFRRELDALGHELPVLAPQWEGYDELQTDGNRSSHSRLGRIEADSESQEDIIRNIARHLAQVGDSMDRSIPPGLVNGLALQLRNTSRSEEDRNRDLATALEQLLQAYPRDMEKEKTMLVLALLLAKKVASHTPSLLRDVFHTTVNFINQNLRTYVRSLARNGMD
In the case of B1, the binding is reported as “binds”.

No constants are given. Whether binding was seen depends on the method and setting. Binding calls can cover weak binding; strength is not graded here. Where a sequence is shown, tags or fusion partners need not be part of it.
